From PubChem BioAssay AID2685 (National Center for Advancing Translational Sciences (NCATS), 2010)
This is one part of the list. These are further read-outs of the screen, such as a control signal, another cell line or another target. No call is given for them. Most of these compounds were active or inconclusive in the main read-out, so they are no random draw. Words in brackets tell the shape of the fitted curve; partial curves, single points and poor fits give uncertain potencies.

Test: qHTS Assay for Lipid Storage Modulators in Drosophila S3 Cells;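 as to cell number change: cells counted by Cell Tracker Red CMTPX staining in the red channel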
Conditions: BODIPY lipid droplet fluorescence, 18-24 h; for cell number change: measured here: cell count max response, cells fed with added oleic acid
How it was run: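 Laser-scanning cytometry quantifies lipid droplet accumulation (500–530 nm total intensity; droplet/cell object ratio) in oleic acid-fed (400 uM added) Drosophila S3 cells treated with a concentration series. 20 uM Triacsin C defined 100% inhibition.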

[1] = measured here: cell number channel AC50, cells fed with added oleic acid
[2] = measured here: lipid fluorescence (Fed channel) AC50, cells fed with added oleic acid

SMILES	cell number change	AC50 [1]	AC50 [2]
CN(C)S(=O)(=O)c1ccc(-c2cn3ccccc3n2)cc1	80.3%	18.4 µM [rising, single point]	29.1 µM [rising, single point]
COc1ccc(OC)c2sc(NC(=O)C3CC3)nc12	3.2%	–	–
Cc1cc(C(C)(C)C)cc(C)c1COC(=O)c1cccnc1	13.5%	–	–
CC(=O)c1cccc(NC(=O)N[C@@H](CC(C)C)C(=O)O)c1	3.14%	–	0.146 µM [falling, full curve]
O=c1c2ccccc2ccc2ccc(P(=O)(O)O)cc12	2.37%	–	–
CC(OC(=O)CC1CCCCC1)C(=O)Nc1ccc(F)cc1 (configuration not stated)	–	–	0.731 µM [falling, single point]
S=c1[nH]nc(-c2ccccn2)n1/N=C/c1cccc2ccccc12	–	–	29.1 µM [rising, single point]
Cc1ccc(S(=O)(=O)NCCC(=O)NNC(=O)C2COc3ccccc3O2)cc1 (configuration not stated)	25.6%	–	2.59 µM [falling, single point]
CCOC(=O)/C=c1\s/c(=C\c2ccccc2OC)c(=O)n1CC(=O)N1CCOCC1	-16.5%	–	–
CC1=C(C(=O)Nc2ccccc2)C2(CCCCC2)C(C(N)=O)C(=S)N1 (configuration not stated)	4.49%	6.51 µM [rising, single point]	–
CN(C)S(=O)(=O)c1cccc(CNCC2COc3ccccc3O2)c1 (configuration not stated)	12%	–	0.326 µM [rising, full curve, poor fit]
CC1(C)OC(=O)C=C[C@]2(C)[C@H]3CC[C@@]4(C)[C@H](c5ccoc5)OC(=O)[C@H]5O[C@]54[C@]3(C)C(=O)C[C@@H]12	-2.09%	–	–
CCn1cc(C(=O)NCC2CCCO2)c(=O)c2cc(S(=O)(=O)N3CCCCCC3)ccc21 (configuration not stated)	–	–	1.64 µM [rising, full curve, poor fit]
Cc1cc(C(=O)NNC(=O)c2ccc(C(F)(F)F)cc2)no1	31%	25.9 µM [rising, single point]	20.6 µM [rising, partial curve]
Cc1nn(-c2ccccc2)c(Cl)c1C1C(C#N)=C(N)OC2=C1C(=O)CCC2 (configuration not stated)	-16.3%	–	18.4 µM [falling, single point]
CCOc1ccccc1N(C(=O)CNC(=O)c1ccco1)C(C(=O)NC1CCCC1)c1ccncc1 (configuration not stated)	2.08%	–	–
Nc1ncnc(Sc2ccccc2)c1[N+](=O)[O-]	-10.2%	–	16.4 µM [falling, single point]
O=C(N=Nc1c(O)[nH]c2ccc(Cl)cc12)c1cc(-c2cccs2)nc2ccccc12	-33.9%	18.4 µM [falling, partial curve, poor fit]	8.2 µM [falling, partial curve, poor fit]
Cn1cc([N+](=O)[O-])c(C(=O)N/N=C\c2c[nH]c3ccccc23)n1	167%	4.61 µM [falling, single point]	2.31 µM [falling, partial curve, poor fit]
CS(=O)(=O)N(CC(=O)N1CCc2ccccc2C1)Cc1ccccc1	114%	29.1 µM [rising, single point]	–

Molecules listed so far that contain sulfur, in the order listed:
SMILES	cell number change	AC50 [1]	AC50 [2]
CN(C)S(=O)(=O)c1ccc(-c2cn3ccccc3n2)cc1	80.3%	18.4 µM [rising, single point]	29.1 µM [rising, single point]
COc1ccc(OC)c2sc(NC(=O)C3CC3)nc12	3.2%	–	–
S=c1[nH]nc(-c2ccccn2)n1/N=C/c1cccc2ccccc12	–	–	29.1 µM [rising, single point]
Cc1ccc(S(=O)(=O)NCCC(=O)NNC(=O)C2COc3ccccc3O2)cc1 (configuration not stated)	25.6%	–	2.59 µM [falling, single point]
CCOC(=O)/C=c1\s/c(=C\c2ccccc2OC)c(=O)n1CC(=O)N1CCOCC1	-16.5%	–	–
CC1=C(C(=O)Nc2ccccc2)C2(CCCCC2)C(C(N)=O)C(=S)N1 (configuration not stated)	4.49%	6.51 µM [rising, single point]	–
CN(C)S(=O)(=O)c1cccc(CNCC2COc3ccccc3O2)c1 (configuration not stated)	12%	–	0.326 µM [rising, full curve, poor fit]
CCn1cc(C(=O)NCC2CCCO2)c(=O)c2cc(S(=O)(=O)N3CCCCCC3)ccc21 (configuration not stated)	–	–	1.64 µM [rising, full curve, poor fit]
Nc1ncnc(Sc2ccccc2)c1[N+](=O)[O-]	-10.2%	–	16.4 µM [falling, single point]
O=C(N=Nc1c(O)[nH]c2ccc(Cl)cc12)c1cc(-c2cccs2)nc2ccccc12	-33.9%	18.4 µM [falling, partial curve, poor fit]	8.2 µM [falling, partial curve, poor fit]
CS(=O)(=O)N(CC(=O)N1CCc2ccccc2C1)Cc1ccccc1	114%	29.1 µM [rising, single point]	–

More records follow.

SMILES	cell number change	AC50 [1]	AC50 [2]
CCOCCCNC(=O)c1ccc(OC(C)=O)cc1	-2.77%	–	–
Cc1cccc(N(C)C(=O)CN(C)S(=O)(=O)c2ccc3c(c2)c(=O)n(C)c(=O)n3C)c1	-19.2%	–	0.13 µM [falling, full curve, poor fit]
CN(C)S(=O)(=O)c1cccc(NC(=O)/C=C/c2ccc(S(=O)(=O)N3CCOCC3)cc2)c1	-45.9%	20.6 µM [falling, partial curve]	–
COc1ccccc1C(NC(=O)C1CCCCC1)c1c(O)ccc2ccccc12 (configuration not stated)	-34.3%	32.6 µM [falling, partial curve]	23.1 µM [falling, partial curve]
O=C(CN1CCOCC1)N1CCCc2ccccc21	1.4%	0.651 µM [falling, single point]	–
CCCOc1ccc(NC(=O)OC2CCN(C)CC2)cc1	-20.6%	0.058 µM [falling, full curve, poor fit]	0.058 µM [falling, full curve]
O=C(COC(=O)C1CC2CCCC(C1)C2=O)NNC(=O)c1ccccc1F (configuration not stated)	–	4.11 µM [falling, single point]	29.1 µM [rising, single point]
O=C1CC(NS(=O)(=O)c2ccc(F)cc2)CN1c1ccc2c(c1)OCCO2 (configuration not stated)	16.2%	–	0.103 µM [falling, full curve, poor fit]
CN1CCN(CCCN2c3ccccc3Sc3ccc(S(=O)(=O)N(C)C)cc32)CC1	5.92%	–	0.366 µM [rising, full curve, poor fit]
CCOc1ccc(C(=O)NCCc2ccccc2)cc1	-65.3%	29.1 µM [falling, single point]	6.51 µM [falling, single point]
O=C(c1ccc2snnc2c1)N1CCCC1	7.57%	–	5.8 µM [falling, partial curve]
CCNC(=S)Nc1scc(-c2ccccc2)c1C(=O)OCC	0.418%	3.26 µM [rising, single point]	6.51 µM [rising, single point]
CS(=O)Cc1cc(Oc2ccccc2)nc(-c2ccncc2)n1 (configuration not stated)	64.7%	29.1 µM [rising, single point]	29.1 µM [rising, single point]
C[C@@H](O)[C@H]1O[C@]2(C)CCC[C@H]1O2	4.45%	–	–
O=C(O)Cc1sc(-c2ccc(Cl)cc2)nc1-c1ccccc1	21.6%	0.0259 µM [rising, full curve, poor fit]	29.1 µM [rising, single point]
c1ccc(Cc2nnc3sc(Nc4ccccc4)nn23)cc1	-6.27%	–	6.51 µM [rising, single point]
O=C(CNC(=O)c1cccc(N2C(=O)c3ccccc3C2=O)c1)Nc1ccc(F)c(F)c1	21.5%	–	6.51 µM [falling, single point]
CC(/C=C/c1ccccc1F)=N\NC(=O)C(C)C	1.49%	–	8.2 µM [rising, partial curve]
c1ccc2c(N3CCCCC3)nc(N3CCCCC3)nc2c1	33.4%	29.1 µM [rising, single point]	29.1 µM [rising, single point]
CCC(=O)n1nc(NCc2ccc(OC)c(OC)c2)nc1NCc1ccc(OC)c(OC)c1	-20%	–	0.82 µM [rising, single point]

SMILES	cell number change	AC50 [1]	AC50 [2]
CCC(C)Sc1nc2c(c(=O)[nH]c(=O)n2C)n1CC(O)COc1ccccc1C (configuration not stated)	-64.8%	23.1 µM [falling, partial curve]	29.1 µM [falling, single point]
O=S(=O)(NCCc1cn2ccccc2n1)c1ccc2c(c1)CCCC2	1.35%	–	14.6 µM [rising, single point]
CC1CCCCC1NS(=O)(=O)c1ccc(-n2cnnn2)cc1 (configuration not stated)	-34.8%	29.1 µM [falling, single point]	–
COc1ccc(C(=O)Nc2cc3c4c(c2)CC(=O)N4CCC3)c(OC)c1	-4.73%	–	6.51 µM [falling, partial curve]
CCOc1ccc(N=Nc2c(C)[nH]n(-c3ccccc3)c2=O)cc1	-28.1%	2.31 µM [falling, full curve, poor fit]	2.06 µM [falling, full curve]
c1ccc(CC2CCCNC2)cc1 (configuration not stated)	-0.838%	–	0.92 µM [rising, full curve]
CCCCC(O)(c1ccccc1)C(CN1CCOCC1)c1ccccc1 (configuration not stated)	-52%	29.1 µM [falling, single point]	29.1 µM [falling, single point]
COc1cc(C2N(c3ccc(F)cc3)C(=O)C3CCCN32)cc(OC)c1OC (configuration not stated)	0.348%	–	–
COc1ccc(Cc2nn[nH]n2)cc1	9.19%	–	0.517 µM [falling, single point]
CSc1ccccc1OCc1cc(C(=O)N(C)Cc2ccc3nsnc3c2)no1	-12.7%	5.17 µM [rising, partial curve]	1.16 µM [rising, full curve, poor fit]
CCOC(=O)c1ccc(NC(=O)Nc2c(C)n(C)n(-c3ccccc3)c2=O)cc1	8.67%	–	29.1 µM [rising, partial curve, poor fit]
Clc1ccc2c(c1)C=Nc1c(NCc3ccccc3)ncnc1O2	-20.5%	–	6.51 µM [rising, partial curve]
CC1(C)N=C(SCC(=O)Nc2ccc(Cl)cc2)C(c2ccc(Cl)cc2)=N1	-51.8%	29.1 µM [falling, single point]	1.03 µM [rising, full curve]
O=C(Nc1ccc(C(=O)N2CCN(c3ccccc3F)CC2)cc1)C1=CSCCO1	–	–	6.51 µM [rising, single point]
Cc1sc2ncn(CC(=O)N3CCCC(C)C3)c(=O)c2c1S(=O)(=O)N1CCCCC1 (configuration not stated)	10.8%	–	–
CCc1nnc(NC(=O)c2cccs2)s1	-30.2%	0.731 µM [falling, full curve]	9.2 µM [falling, partial curve]
O=[N+]([O-])c1ccc(N2CCCCC2)cc1SCCO	–	0.146 µM [falling, full curve, poor fit]	–
CC(=O)Nc1c(S(=O)(=O)c2ccccc2)c2nc3ccccc3nc2n1Cc1ccccc1	–	–	8.2 µM [falling, partial curve, poor fit]

Whole records from above.
`c1ccc(CC2CCCNC2)cc1` (configuration not stated) reads cell number change: -0.838%; AC50 [2]: 0.92 µM [rising, full curve]
`CCC(C)Sc1nc2c(c(=O)[nH]c(=O)n2C)n1CC(O)COc1ccccc1C` (configuration not stated) reads cell number change: -64.8%; AC50 [1]: 23.1 µM [falling, partial curve]; AC50 [2]: 29.1 µM [falling, single point]
